Values of other authors as cited in patent US20060240077A1, “Methodologies for improving the quality of meat, health status of animals and impact on environment” (priority 2003, published 2006).

Settings: for Odour threshold air, High: highest literature value; for Odour threshold air, Low: lowest literature value

## CCCC(C)=O [Treatment 2-Pentanon, 2-Pentanon]
  Odour threshold air, High: 48 mg/m3
  Odour threshold air, Low: 11 mg/m3

## CSSSC [Dimethyltrisulfide]
  Odour threshold air, High: 0.0073 mg/m3
  Odour threshold air, Low: 0.0073 mg/m3

## CCCOC(=O)CC [Propylpropionate]
  Odour threshold air, High: 0.26 mg/m3
  Odour threshold air, Low: 0.23 mg/m3

## c1ccc2[nH]ccc2c1 [Indole]
  Odour threshold air, High: 0.0006 mg/m3
  Odour threshold air, Low: 0.0006 mg/m3

## CCC(C)=O [Treatment 2-Butanon, 2-Butanon]
  Odour threshold air, High: 250 mg/m3
  Odour threshold air, Low: 0.75 mg/m3
